Test results taken from the supplement of paper PMC5355238.
Where a name gives a salt, the structure may show the parent alone. The list shows a part of the results. Most entries show no effect beyond the scatter of the controls.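 Reh is a human leukemia cell line; the read-out is the median γH2AX antibody signal in S-phase cells by flow cytometry, with the score counting standard deviations from the median difference of each paired set of plates. Scores above 2.5 were called candidate hits, while scores below -2 mark compounds that lowered the MK1775-induced damage.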

Tested on: Reh
Assay: Z' of S-phase gammaH2AX difference (drug + MK1775 minus drug alone) (Z-score); higher = stronger synergistic S-phase DNA damage with MK1775
Conditions: MK1775 concentration 400 nM; first compound 10 µM; 4 h

SMILES	Z' of S-phase gammaH2AX difference (Z-score)
Clc1ccc(C(c2ccccc2Cl)C(Cl)Cl)cc1 (configuration not stated) [1-(2-Chlorophenyl)-1-(4-chlorophenyl)-2,2-dichloroethane] + C=CCn1c(=O)c2cnc(Nc3ccc(N4CCN(C)CC4)cc3)nc2n1-c1cccc(C(C)(C)O)n1 [MK1775]	inactive: 0.381
NCCCS(=O)(=O)O [3-Amino-1-propanesulfonic acid sodium] + C=CCn1c(=O)c2cnc(Nc3ccc(N4CCN(C)CC4)cc3)nc2n1-c1cccc(C(C)(C)O)n1 [MK1775]	inactive: -0.501
C=CCN1CCc2cc(O)c(O)cc2C(c2ccccc2)C1 (configuration not stated) + C=CCn1c(=O)c2cnc(Nc3ccc(N4CCN(C)CC4)cc3)nc2n1-c1cccc(C(C)(C)O)n1 [MK1775]	inactive: -0.36
Cc1ccc(Nc2nccc(N(C)c3ccc4c(C)n(C)nc4c3)n2)cc1S(N)(=O)=O [Pazopanib] + C=CCn1c(=O)c2cnc(Nc3ccc(N4CCN(C)CC4)cc3)nc2n1-c1cccc(C(C)(C)O)n1 [MK1775]	inactive: -0.285
COc1cc(Nc2ncc3c(n2)-c2ccc(Cl)cc2C(c2c(F)cccc2OC)=NC3)ccc1C(=O)O [MLN8237 (Alisertib)] + C=CCn1c(=O)c2cnc(Nc3ccc(N4CCN(C)CC4)cc3)nc2n1-c1cccc(C(C)(C)O)n1 [MK1775]	inactive: 0.18
O=C(O)c1cc(=O)c2ccccc2[nH]1 [Kynurenic acid] + C=CCn1c(=O)c2cnc(Nc3ccc(N4CCN(C)CC4)cc3)nc2n1-c1cccc(C(C)(C)O)n1 [MK1775]	inactive: -0.697
Cc1cnc(NC(=O)Nc2cc(Br)c(C)cc2OC[C@@H]2CNCCO2)cn1 + C=CCn1c(=O)c2cnc(Nc3ccc(N4CCN(C)CC4)cc3)nc2n1-c1cccc(C(C)(C)O)n1 [MK1775]	active: 2.83
Nc1cc(C(F)(F)F)c(-c2cc(N3CCOCC3)nc(N3CCOCC3)n2)cn1 + C=CCn1c(=O)c2cnc(Nc3ccc(N4CCN(C)CC4)cc3)nc2n1-c1cccc(C(C)(C)O)n1 [MK1775]	inactive: -0.276
Cc1c(C(=O)Nc2ccc(N3C[C@@H](C)O[C@@H](C)C3)nc2)cccc1-c1ccc(OC(F)(F)F)cc1 [LDE225 (NVP-LDE225, Erismodegib)] + C=CCn1c(=O)c2cnc(Nc3ccc(N4CCN(C)CC4)cc3)nc2n1-c1cccc(C(C)(C)O)n1 [MK1775]	inactive: 0.00665
CC(C)NNC(=O)c1ccncc1 [Iproniazid phosphate] + C=CCn1c(=O)c2cnc(Nc3ccc(N4CCN(C)CC4)cc3)nc2n1-c1cccc(C(C)(C)O)n1 [MK1775]	inactive: -0.143
O=C(O)CCCCCCC1C(=O)NC(=O)N1CCC(O)C1CCCCC1 (configuration not stated) + C=CCn1c(=O)c2cnc(Nc3ccc(N4CCN(C)CC4)cc3)nc2n1-c1cccc(C(C)(C)O)n1 [MK1775]	inactive: -0.0679
O=c1cc(N2CCOCC2)oc2c(-c3ccccc3)cccc12 [LY-294,002 hydrochloride] + C=CCn1c(=O)c2cnc(Nc3ccc(N4CCN(C)CC4)cc3)nc2n1-c1cccc(C(C)(C)O)n1 [MK1775]	inactive: 0.369
O=c1cc(N2CCOCC2)oc2c(-c3ccccc3)cccc12 + C=CCn1c(=O)c2cnc(Nc3ccc(N4CCN(C)CC4)cc3)nc2n1-c1cccc(C(C)(C)O)n1 [MK1775]	inactive: 0.202
CCN1CCCC1CNC(=O)c1cc(S(N)(=O)=O)ccc1OC (single isomer, unassigned; (-)) [(-)-Sulpiride] + C=CCn1c(=O)c2cnc(Nc3ccc(N4CCN(C)CC4)cc3)nc2n1-c1cccc(C(C)(C)O)n1 [MK1775]	inactive: -0.461
CN1CCN2c3ccccc3Cc3ccccc3C2C1 (configuration not stated) [Mianserin hydrochloride] + C=CCn1c(=O)c2cnc(Nc3ccc(N4CCN(C)CC4)cc3)nc2n1-c1cccc(C(C)(C)O)n1 [MK1775]	inactive: -0.398
N[C@@H](Cc1ccc(O)c(O)c1)C(=O)O [L-3,4-Dihydroxyphenylalanine] + C=CCn1c(=O)c2cnc(Nc3ccc(N4CCN(C)CC4)cc3)nc2n1-c1cccc(C(C)(C)O)n1 [MK1775]	inactive: -0.0802
CN(c1ncccc1CNc1nc(Nc2ccc3c(c2)CC(=O)N3)ncc1C(F)(F)F)S(C)(=O)=O + C=CCn1c(=O)c2cnc(Nc3ccc(N4CCN(C)CC4)cc3)nc2n1-c1cccc(C(C)(C)O)n1 [MK1775]	inactive: -1.04
CCN1C(=O)C=CC1=O [N-Ethylmaleimide] + C=CCn1c(=O)c2cnc(Nc3ccc(N4CCN(C)CC4)cc3)nc2n1-c1cccc(C(C)(C)O)n1 [MK1775]	inactive: 0.843
C[N+](C)(C)CCOC(N)=O [Carbachol] + C=CCn1c(=O)c2cnc(Nc3ccc(N4CCN(C)CC4)cc3)nc2n1-c1cccc(C(C)(C)O)n1 [MK1775]	inactive: -0.167

SMILES	Z' of S-phase gammaH2AX difference (Z-score)
COc1ccc(-c2oc3cc(OC)ccc3c2C(=O)c2ccc(C#N)cc2)cc1 + C=CCn1c(=O)c2cnc(Nc3ccc(N4CCN(C)CC4)cc3)nc2n1-c1cccc(C(C)(C)O)n1 [MK1775]	inactive: 0.143
CCOC(=O)C1=C(C)NC(C)=C(C(=O)OC)C1c1cccc(Cl)c1Cl (configuration not stated) [Felodipine] + C=CCn1c(=O)c2cnc(Nc3ccc(N4CCN(C)CC4)cc3)nc2n1-c1cccc(C(C)(C)O)n1 [MK1775]	inactive: 0.702
Cc1nc2sccn2c(=O)c1CCN1CCC(=C(c2ccc(F)cc2)c2ccc(F)cc2)CC1 [Ritanserin] + C=CCn1c(=O)c2cnc(Nc3ccc(N4CCN(C)CC4)cc3)nc2n1-c1cccc(C(C)(C)O)n1 [MK1775]	inactive: -0.323
Cc1oc(S(=O)(=O)N2CCCCC2)cc1NC(=O)Nc1ccccc1 + C=CCn1c(=O)c2cnc(Nc3ccc(N4CCN(C)CC4)cc3)nc2n1-c1cccc(C(C)(C)O)n1 [MK1775]	inactive: 0.397
O=C1c2c(O)ccc(O)c2C(=O)c2c(NCCNCCO)ccc(NCCNCCO)c21 [Mitoxantrone Hydrochloride] + C=CCn1c(=O)c2cnc(Nc3ccc(N4CCN(C)CC4)cc3)nc2n1-c1cccc(C(C)(C)O)n1 [MK1775]	inactive: 2.1
O=C1c2c(O)ccc(O)c2C(=O)c2c(NCCNCCO)ccc(NCCNCCO)c21 [Mitoxantrone] + C=CCn1c(=O)c2cnc(Nc3ccc(N4CCN(C)CC4)cc3)nc2n1-c1cccc(C(C)(C)O)n1 [MK1775]	inactive: -10.6
CN(C(=O)CCCOc1ccc2[nH]c(=O)ccc2c1)C1CCCCC1 [Cilostamide] + C=CCn1c(=O)c2cnc(Nc3ccc(N4CCN(C)CC4)cc3)nc2n1-c1cccc(C(C)(C)O)n1 [MK1775]	inactive: -0.127
CCCCc1oc2ccccc2c1C(=O)c1cc(I)c(OCCN(CC)CC)c(I)c1 [Amiodarone hydrochloride] + C=CCn1c(=O)c2cnc(Nc3ccc(N4CCN(C)CC4)cc3)nc2n1-c1cccc(C(C)(C)O)n1 [MK1775]	inactive: 0.438
CN1CCN(c2ccc3nc(-c4c(N)c5c(F)cccc5[nH]c4=O)[nH]c3c2)CC1 [Dovitinib (TKI-258)] + C=CCn1c(=O)c2cnc(Nc3ccc(N4CCN(C)CC4)cc3)nc2n1-c1cccc(C(C)(C)O)n1 [MK1775]	active: 4.15
N[C@@H](COP(=O)(O)O)C(=O)O [O-Phospho-L-serine] + C=CCn1c(=O)c2cnc(Nc3ccc(N4CCN(C)CC4)cc3)nc2n1-c1cccc(C(C)(C)O)n1 [MK1775]	inactive: 0.582
CCN1CCCC1CNC(=O)c1cc(S(N)(=O)=O)ccc1OC (configuration not stated) [(?)-Sulpiride] + C=CCn1c(=O)c2cnc(Nc3ccc(N4CCN(C)CC4)cc3)nc2n1-c1cccc(C(C)(C)O)n1 [MK1775]	inactive: -0.319
O=C(O)c1cc2cc(F)ccc2[nH]1 [5-Fluoroindole-2-carboxylic acid] + C=CCn1c(=O)c2cnc(Nc3ccc(N4CCN(C)CC4)cc3)nc2n1-c1cccc(C(C)(C)O)n1 [MK1775]	inactive: -0.0334
CC12CC3CC(C)(C1)CC(N)(C3)C2 [Memantine hydrochloride] + C=CCn1c(=O)c2cnc(Nc3ccc(N4CCN(C)CC4)cc3)nc2n1-c1cccc(C(C)(C)O)n1 [MK1775]	inactive: 0.15
C#C[C@]1(O)CC[C@H]2[C@@H]3CCC4=Cc5oncc5C[C@]4(C)[C@H]3CC[C@@]21C [Danazol] + C=CCn1c(=O)c2cnc(Nc3ccc(N4CCN(C)CC4)cc3)nc2n1-c1cccc(C(C)(C)O)n1 [MK1775]	inactive: 0.712
Cc1cccc(-c2nn3c(c2-c2ccnc4ccc(C(N)=O)cc24)CCC3)n1 + C=CCn1c(=O)c2cnc(Nc3ccc(N4CCN(C)CC4)cc3)nc2n1-c1cccc(C(C)(C)O)n1 [MK1775]	inactive: 0.23
O=C(Nc1cccnc1)N1CCC(Cc2cccc(Oc3ccc(C(F)(F)F)cn3)c2)CC1 + C=CCn1c(=O)c2cnc(Nc3ccc(N4CCN(C)CC4)cc3)nc2n1-c1cccc(C(C)(C)O)n1 [MK1775]	inactive: -0.123
O=C(Nc1ccc([N+](=O)[O-])cc1Cl)c1cc(Cl)ccc1O [Niclosamide] + C=CCn1c(=O)c2cnc(Nc3ccc(N4CCN(C)CC4)cc3)nc2n1-c1cccc(C(C)(C)O)n1 [MK1775]	inactive: -0.539
CO[C@H]1C[C@@H]2CC[C@@H](C)[C@@](O)(O2)C(=O)C(=O)N2CCCC[C@H]2C(=O)O[C@H]([C@H](C)C[C@@H]2CC[C@@H](OC(=O)C(C)(CO)CO)[C@H](OC)C2)CC(=O)[C@H](C)/C=C(\C)[C@@H](O)[C@@H](OC)C(=O)[C@H](C)C[C@H](C)/C=C/C=C/C=C/1C [Temsirolimus (Torisel)] + C=CCn1c(=O)c2cnc(Nc3ccc(N4CCN(C)CC4)cc3)nc2n1-c1cccc(C(C)(C)O)n1 [MK1775]	inactive: -0.359

A few values from the results shown.
In Z' of S-phase gammaH2AX difference (Z-score), CN(c1ncccc1CNc1nc(Nc2ccc3c(c2)CC(=O)N3)ncc1C(F)(F)F)S(C)(=O)=O + C=CCn1c(=O)c2cnc(Nc3ccc(N4CCN(C)CC4)cc3)nc2n1-c1cccc(C(C)(C)O)n1 [MK1775] is entered as inactive: -1.04
In Z' of S-phase gammaH2AX difference (Z-score), CCN1CCCC1CNC(=O)c1cc(S(N)(=O)=O)ccc1OC (single isomer, unassigned; (-)) [(-)-Sulpiride] + C=CCn1c(=O)c2cnc(Nc3ccc(N4CCN(C)CC4)cc3)nc2n1-c1cccc(C(C)(C)O)n1 [MK1775] is entered as inactive: -0.461
